Assay results taken from publication PMC12444411.
No constants are given. Whether binding was seen depends on the method and setting. In cells and extracts the contact can be indirect. Some binding calls cover weakened binding; strength is not graded here.

The chains behind the UniProt entries cited, without tags or fusion partners.
UniProt Q61188: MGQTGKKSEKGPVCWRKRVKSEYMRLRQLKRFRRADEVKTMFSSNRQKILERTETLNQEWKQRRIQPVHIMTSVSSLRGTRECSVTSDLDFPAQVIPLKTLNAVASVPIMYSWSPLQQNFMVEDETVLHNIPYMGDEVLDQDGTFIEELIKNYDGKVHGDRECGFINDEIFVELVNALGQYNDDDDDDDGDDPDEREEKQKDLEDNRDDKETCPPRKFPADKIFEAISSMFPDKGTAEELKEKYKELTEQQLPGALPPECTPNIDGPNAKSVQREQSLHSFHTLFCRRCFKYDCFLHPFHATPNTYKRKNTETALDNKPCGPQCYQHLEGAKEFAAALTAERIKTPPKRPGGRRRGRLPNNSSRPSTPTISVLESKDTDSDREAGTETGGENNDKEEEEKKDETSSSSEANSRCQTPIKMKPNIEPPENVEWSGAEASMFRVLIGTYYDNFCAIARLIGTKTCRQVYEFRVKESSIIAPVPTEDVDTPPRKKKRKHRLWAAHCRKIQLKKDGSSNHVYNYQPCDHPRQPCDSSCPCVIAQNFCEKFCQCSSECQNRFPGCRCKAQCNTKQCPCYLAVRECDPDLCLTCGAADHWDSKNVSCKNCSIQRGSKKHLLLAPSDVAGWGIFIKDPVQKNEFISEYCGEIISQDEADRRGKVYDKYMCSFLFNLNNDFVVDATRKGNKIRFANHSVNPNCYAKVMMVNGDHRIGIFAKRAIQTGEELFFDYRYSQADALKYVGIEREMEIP

Target: T1, Tri-domain proteins 27 (TRIM27) (mouse (endogenous in mRTECs)) (UniProt Q62158)
T1 sequence: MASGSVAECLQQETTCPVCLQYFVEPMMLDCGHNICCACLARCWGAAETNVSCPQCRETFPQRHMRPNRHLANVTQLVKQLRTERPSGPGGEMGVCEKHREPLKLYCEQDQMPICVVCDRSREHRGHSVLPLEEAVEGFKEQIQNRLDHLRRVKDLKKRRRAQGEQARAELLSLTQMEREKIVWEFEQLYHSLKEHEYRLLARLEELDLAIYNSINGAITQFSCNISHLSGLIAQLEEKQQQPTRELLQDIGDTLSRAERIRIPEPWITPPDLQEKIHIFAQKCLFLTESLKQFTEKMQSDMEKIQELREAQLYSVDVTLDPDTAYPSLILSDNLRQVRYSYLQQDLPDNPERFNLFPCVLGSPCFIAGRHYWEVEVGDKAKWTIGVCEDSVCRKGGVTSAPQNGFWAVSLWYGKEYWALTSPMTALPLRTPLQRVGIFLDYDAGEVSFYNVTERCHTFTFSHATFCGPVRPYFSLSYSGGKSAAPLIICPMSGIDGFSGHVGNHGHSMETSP
Assay: co-IP; cell lysates incubated for 4 h with Sepharose CL-4B beads conjugated with anti-TRIM27 antibody or IgG; bound proteins eluted and examined by western blotting; cells with and without H2O2 treatment (interaction weakened after H2O2)

In the case of “Enhancer of zeste homolog 2 (EZH2) (from UniProt Q61188 1-746)”, the binding is reported as “binds”.
